Source: PubChem BioAssay AID602196 (INSERM, 2012)

Test: 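Genes whose knock-down alters cisplatin killing of lung cancer cells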
System: human A549 lung cancer cells
Reagent: siRNA pair against human genes
Time to read-out: 48 h transfection before cisplatin; time from cisplatin to read-out not stated
Challenge: cisplatin at a dose killing half of control-siRNA cells; exact dose and duration not given
Measured: 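Cisplatin cell death as a shift from the 50% death seen with control siRNA; siRNAs toxic or growth-blocking alone scored 0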
Reading the numbers: two-siRNA summed score (-2 to +2): higher = both siRNAs protect from cisplatin killing; -2 means both sensitise; mean protection from cisplatin (shift in death) and protection from cisplatin (shift in death), siRNA C and protection from cisplatin (shift in death), siRNA D: higher = protection from cisplatin killing
Hit rule: 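Each siRNA scores 0 if harmful alone by LDH or WST-1, otherwise +1 if it reduces and -1 if it increases cisplatin killing; a gene is active when both siRNAs agree (sum +2 or -2)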
Calls: active = both siRNAs shift cisplatin killing the same way; inactive = no consistent shift, or siRNA harmful alone
The deposit covers about 23,000 reagents; this is a part drawn at random. Of all reagents, 455 (2%) got an active call. 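Active includes both protection and sensitisation; some change values fall well beyond the stated -50 to +50 range.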 Reagents against one gene are numbered here. Not given: the amount of reagent.

| Target gene | reagent no. | two-siRNA summed score (-2 to +2) | mean protection from cisplatin (shift in death) (%) | protection from cisplatin (shift in death), siRNA C (%) | protection from cisplatin (shift in death), siRNA D (%) | activity call |
| --- | --- | --- | --- | --- | --- | --- |
| ZNHIT6 (GeneID 54680) | 1 | 0 | -1.8 | -6.3 | 2.6 | inactive |
| FLJ39609 | 1 | 1 | 4.9 | 15.9 | -6.1 | inactive |
| APCDD1L (GeneID 164284) | 1 | -1 | -12.3 | -21.9 | -2.7 | inactive |
| RPS28 (GeneID 6234) | 1 | 0 | 20.3 | 18.3 | 22.3 | inactive |
| METRNL (GeneID 284207) | 1 | 0 | 19.5 | 11.4 | 27.6 | inactive |
| ZNF169 (GeneID 169841) | 1 | 1 | 17.7 | 23.9 | 11.5 | inactive |
| LOC130773 | 1 | 0 | 3.3 | 0.3 | 6.2 | inactive |
| ENDOG (GeneID 2021) | 1 | 0 | -4.1 | -12.3 | 4.1 | inactive |
| GHR (GeneID 2690) | 1 | 0 | 5.1 | -1.9 | 12 | inactive |
| RPS6KA6 (GeneID 27330) | 1 | -1 | -9.7 | -4.4 | -15.1 | inactive |
| ABCB5 (GeneID 340273) | 1 | -1 | -5.6 | -8.2 | -3 | inactive |
| BEND6 (GeneID 221336) | 1 | 0 | 5.3 | -5.2 | 15.9 | inactive |
| CD200R1L (GeneID 344807) | 1 | 0 | 2.7 | 6.3 | -0.8 | inactive |
| SLTM (GeneID 79811) | 1 | 0 | 1 | -6.3 | 8.4 | inactive |
| SLTM (GeneID 79811) | 2 | 0 | 5.4 | -1.7 | 12.5 | inactive |
| LINC01622 (GeneID 285768) | 1 | 0 | 5.2 | 4 | 6.5 | inactive |
| FAM91A1 (GeneID 157769) | 1 | 0 | 2.4 | 1.4 | 3.3 | inactive |
| SIGLEC16 (GeneID 400709) | 1 | 0 | 2.3 | 1 | 3.5 | inactive |
| SDSL (GeneID 113675) | 1 | 0 | 3.5 | 10.2 | -3.2 | inactive |
| FBXL3 (GeneID 26224) | 1 | -1 | -13.5 | -5.6 | -21.3 | inactive |
| ABCA8 (GeneID 10351) | 1 | -1 | -27.6 | -45.9 | -9.4 | inactive |
| LOC340518 | 1 | 0 | 29.3 | 7.3 | 51.2 | inactive |
| LLPH (GeneID 84298) | 1 | 0 | 2.3 | 4.6 | 0.1 | inactive |

Single entries from the list:
Value of LLPH (GeneID 84298) under “activity call”: inactive
RPS6KA6 (GeneID 27330), activity call → inactive
Entry of ABCA8 (GeneID 10351) in “mean protection from cisplatin (shift in death) (%)”: -27.6
Result of BEND6 (GeneID 221336) under “two-siRNA summed score (-2 to +2)”: 0
